The text below walks through data of EP4722249A1 (AIMED BIO INC., dated 2026).

The target of the experiment is monkey CD200R1 (monkey). As to the kind of experiment: ELISA. For orientation: ELISA stands for enzyme-linked immunosorbent assay.

Residue numbers refer to the chain shown, from its start. Results are given in words; binding and its absence hold for the method and conditions named. Binding can be weak; no strength is given.

B1: P001009v1 (antibody, V domains shown)
VH: EVQLLESGGGLVQPGGSLRLSCAASGFTFSSYDMSWVRQAPGKGLEWVSWISHGGGSIYYADSVKGRFTISRDNSKNTLYLQMNSLRAEDTAVYYCARDAPAYSAPLFDYWGQGTLVTVSS
VL: QSVLTQPPSASGTPGQRVTISCSGSSSNIGNNAVNWYQQLPGTAPKLLIYYDKNRPSGVPDRFSGSKSGTSASLAISGLRSEDEADYYCAAWDDRLSGYVFGGGTKLTVL
As to B1, the binding entry was “binds”.

B2: P001009v2 (antibody, V domains shown)
VH: B1 VH
VL: B1 VL with D94R, R95S
Consider B2, for which the binding entry is “binds”.
